pIC50: −log10 of the molar value.
System: SH-SY5Y cells
Experiment: Cell viability assay
Assay type: cell-based, human
Settings: read-out: cytotoxicity towards SH-SY5Y cells IC50; alamar blue, 24 h

O=C(CCCCCCC(=O)Nc1ccccc1)NO [SAHA]
pIC50: 5.62

— PMC10190190 (Journal of Enzyme Inhibition and Medicinal Chemistry, 2023)
